# According to US20170204380A1, “GLYCOSYL TRANSFERASES AND THEIR USES” (TECHNISCHE UNIVERSITAT MUNCHEN, priority 2014, published 2017):
# Sequences of proteins named here, by UniProt entry; tags and fusion partners are left off.
# UniProt F6HTJ4, entry or part of it: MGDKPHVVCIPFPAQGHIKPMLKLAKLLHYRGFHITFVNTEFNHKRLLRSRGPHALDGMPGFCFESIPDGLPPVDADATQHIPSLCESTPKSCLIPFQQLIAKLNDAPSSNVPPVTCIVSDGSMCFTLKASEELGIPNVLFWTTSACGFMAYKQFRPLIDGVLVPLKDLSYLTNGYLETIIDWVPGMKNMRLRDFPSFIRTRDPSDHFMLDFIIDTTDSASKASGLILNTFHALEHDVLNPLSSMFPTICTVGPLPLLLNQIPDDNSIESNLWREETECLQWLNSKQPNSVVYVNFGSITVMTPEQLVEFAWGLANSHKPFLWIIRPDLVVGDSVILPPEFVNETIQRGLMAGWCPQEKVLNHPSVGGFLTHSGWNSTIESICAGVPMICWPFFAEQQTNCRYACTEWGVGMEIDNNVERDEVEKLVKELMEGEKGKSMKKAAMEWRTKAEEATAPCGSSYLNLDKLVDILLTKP
# UniProt F6H0R6, entry or part of it: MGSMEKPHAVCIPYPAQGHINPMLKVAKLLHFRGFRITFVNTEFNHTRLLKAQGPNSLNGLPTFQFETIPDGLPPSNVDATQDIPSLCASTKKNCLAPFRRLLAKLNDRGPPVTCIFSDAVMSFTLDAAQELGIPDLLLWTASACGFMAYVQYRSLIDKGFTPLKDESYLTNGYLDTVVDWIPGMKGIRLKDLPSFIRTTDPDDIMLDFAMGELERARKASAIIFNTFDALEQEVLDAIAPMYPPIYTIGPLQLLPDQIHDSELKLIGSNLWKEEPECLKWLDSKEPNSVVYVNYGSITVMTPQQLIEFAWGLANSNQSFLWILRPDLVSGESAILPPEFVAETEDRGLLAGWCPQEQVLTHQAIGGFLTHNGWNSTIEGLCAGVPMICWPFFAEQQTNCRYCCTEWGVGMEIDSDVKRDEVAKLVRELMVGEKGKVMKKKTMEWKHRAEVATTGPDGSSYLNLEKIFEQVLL
# Some results were stated once for a whole list of compounds, not compound by compound.
# What was measured:
# [1] = biological target: VvGT16 (Vitis vinifera, UniProt F6HTJ4); test: Substrate screening, radiochemical analysis with UDP-[14C]glucose; type: biochemical; conditions: relative to conversion of benzyl alcohol (100%)
# Procedure: (§1) In the initial screening, each reaction mixture (200 μL in total) contained Tris-HCl buffer (100 mM, pH 8, 10 mM 2-mercaptoethanol), 37 pmol UDP-[^14C]glucose (0.01 μCi, Biotrend, Köln, Germany), substrate (50 μL of a 1 mg/mL stock solution) and purified protein (0.5-0.8 μg/μL). […] The organic phase was mixed with 2 mL Pro Flow P+ cocktail (Meridian Biotechnologies Ltd., Epsom, UK) and radioactivity was determined by liquid scintillation counting (LSC, Tri-Carb 2800TR, Perkin Elmer, Waltham Mass., USA). Additionally, negative controls without substrate were performed.
# (§2) The recombinant proteins were expressed with an N-terminal GST-tag, affinity purified and verified by SDS-PAGE and Western Blot using GST-specific antibody.
# [2] = biological target: VvGT14a (Vitis vinifera, UniProt F6H0R6); test: as above; type: biochemical; conditions: relative to conversion of geraniol (100%)
# Procedure: as §1, §2
SMILES,relative activity [1] [%],relative activity [2] [%]
OCc1ccccc1 [benzyl alcohol],> 80,
O=c1c(O)c(-c2ccc(O)c(O)c2)oc2cc(O)cc(O)c12 [quercetin],,< 1
